Experimental data as given in the supplement of paper PMC10849652.
The list shows a part of the results.

Protein sequences, listed by entry. Tags and fused reporters are not part of them. Lines headed by an entry give the natural chain unless they say otherwise; changes in a name come on top.
UniProt Q6P4A7: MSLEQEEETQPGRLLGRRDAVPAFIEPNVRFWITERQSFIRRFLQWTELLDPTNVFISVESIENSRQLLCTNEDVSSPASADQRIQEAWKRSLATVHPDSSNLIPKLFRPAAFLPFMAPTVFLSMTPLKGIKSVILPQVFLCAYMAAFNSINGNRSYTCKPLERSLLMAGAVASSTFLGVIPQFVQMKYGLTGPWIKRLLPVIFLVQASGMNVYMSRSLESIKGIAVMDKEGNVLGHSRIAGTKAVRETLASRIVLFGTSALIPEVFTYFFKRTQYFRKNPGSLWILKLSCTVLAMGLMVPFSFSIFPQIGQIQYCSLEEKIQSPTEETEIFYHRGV
UniProt Q8IXJ6: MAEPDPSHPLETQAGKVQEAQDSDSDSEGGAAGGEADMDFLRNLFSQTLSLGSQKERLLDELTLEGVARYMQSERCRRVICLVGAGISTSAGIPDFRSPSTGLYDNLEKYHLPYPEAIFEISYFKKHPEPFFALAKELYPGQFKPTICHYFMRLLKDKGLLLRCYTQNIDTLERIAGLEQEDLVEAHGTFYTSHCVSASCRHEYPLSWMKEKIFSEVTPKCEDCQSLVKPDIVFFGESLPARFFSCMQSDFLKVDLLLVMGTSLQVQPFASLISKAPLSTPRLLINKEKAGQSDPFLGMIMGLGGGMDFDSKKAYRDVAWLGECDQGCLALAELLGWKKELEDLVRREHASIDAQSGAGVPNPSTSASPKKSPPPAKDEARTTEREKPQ
UniProt Q15393: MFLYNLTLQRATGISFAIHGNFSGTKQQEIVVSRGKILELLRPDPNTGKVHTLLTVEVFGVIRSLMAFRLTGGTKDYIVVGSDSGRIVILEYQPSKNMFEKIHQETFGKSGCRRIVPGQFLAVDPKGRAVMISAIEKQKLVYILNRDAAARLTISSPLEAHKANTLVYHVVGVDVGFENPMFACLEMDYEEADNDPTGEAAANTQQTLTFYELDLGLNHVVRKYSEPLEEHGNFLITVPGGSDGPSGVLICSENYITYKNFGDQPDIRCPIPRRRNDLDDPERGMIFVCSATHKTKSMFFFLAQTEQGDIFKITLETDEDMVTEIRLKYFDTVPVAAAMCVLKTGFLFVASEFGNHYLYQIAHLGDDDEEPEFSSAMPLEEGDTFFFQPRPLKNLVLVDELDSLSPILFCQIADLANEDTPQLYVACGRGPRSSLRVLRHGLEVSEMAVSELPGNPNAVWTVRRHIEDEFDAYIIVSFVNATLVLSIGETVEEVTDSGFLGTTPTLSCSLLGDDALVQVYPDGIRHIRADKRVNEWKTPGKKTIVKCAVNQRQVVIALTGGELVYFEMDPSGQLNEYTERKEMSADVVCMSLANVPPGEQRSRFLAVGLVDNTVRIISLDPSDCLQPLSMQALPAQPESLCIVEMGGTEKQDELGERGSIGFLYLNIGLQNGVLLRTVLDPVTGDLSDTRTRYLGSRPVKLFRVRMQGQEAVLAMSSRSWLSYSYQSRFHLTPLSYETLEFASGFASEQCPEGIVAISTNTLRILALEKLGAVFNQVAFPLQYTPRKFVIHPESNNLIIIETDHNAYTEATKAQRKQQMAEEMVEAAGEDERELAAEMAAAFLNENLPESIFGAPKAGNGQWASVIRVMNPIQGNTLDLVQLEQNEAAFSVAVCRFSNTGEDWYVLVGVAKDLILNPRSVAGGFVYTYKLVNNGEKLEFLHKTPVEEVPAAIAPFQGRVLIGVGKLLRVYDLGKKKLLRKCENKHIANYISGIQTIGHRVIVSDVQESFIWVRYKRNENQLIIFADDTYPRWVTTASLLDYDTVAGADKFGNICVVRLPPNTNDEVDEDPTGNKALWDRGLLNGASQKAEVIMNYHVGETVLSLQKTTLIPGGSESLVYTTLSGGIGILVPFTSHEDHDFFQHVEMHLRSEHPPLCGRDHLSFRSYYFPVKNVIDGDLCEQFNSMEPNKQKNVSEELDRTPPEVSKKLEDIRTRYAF
UniProt P63208, whole entry, looked up: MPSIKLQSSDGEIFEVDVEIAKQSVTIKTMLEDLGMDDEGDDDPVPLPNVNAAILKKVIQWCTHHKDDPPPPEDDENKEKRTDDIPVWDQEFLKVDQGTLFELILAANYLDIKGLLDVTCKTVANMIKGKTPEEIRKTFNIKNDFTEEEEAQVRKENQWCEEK
UniProt O75368: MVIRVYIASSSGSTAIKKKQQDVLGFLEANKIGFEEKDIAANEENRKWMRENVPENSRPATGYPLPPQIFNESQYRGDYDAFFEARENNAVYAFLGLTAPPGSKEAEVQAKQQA
UniProt Q13530: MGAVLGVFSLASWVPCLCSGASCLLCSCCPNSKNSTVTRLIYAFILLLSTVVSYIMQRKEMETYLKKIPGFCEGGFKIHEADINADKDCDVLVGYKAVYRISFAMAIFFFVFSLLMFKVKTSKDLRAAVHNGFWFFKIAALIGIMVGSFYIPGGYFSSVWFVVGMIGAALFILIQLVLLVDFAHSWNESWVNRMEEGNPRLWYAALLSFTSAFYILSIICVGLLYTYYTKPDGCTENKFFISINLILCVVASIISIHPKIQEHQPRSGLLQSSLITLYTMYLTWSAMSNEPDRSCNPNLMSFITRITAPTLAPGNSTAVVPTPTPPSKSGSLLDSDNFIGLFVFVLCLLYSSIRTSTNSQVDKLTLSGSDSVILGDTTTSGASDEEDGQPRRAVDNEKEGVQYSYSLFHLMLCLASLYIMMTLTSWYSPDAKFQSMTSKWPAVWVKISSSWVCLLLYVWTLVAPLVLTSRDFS
UniProt Q9UQ13: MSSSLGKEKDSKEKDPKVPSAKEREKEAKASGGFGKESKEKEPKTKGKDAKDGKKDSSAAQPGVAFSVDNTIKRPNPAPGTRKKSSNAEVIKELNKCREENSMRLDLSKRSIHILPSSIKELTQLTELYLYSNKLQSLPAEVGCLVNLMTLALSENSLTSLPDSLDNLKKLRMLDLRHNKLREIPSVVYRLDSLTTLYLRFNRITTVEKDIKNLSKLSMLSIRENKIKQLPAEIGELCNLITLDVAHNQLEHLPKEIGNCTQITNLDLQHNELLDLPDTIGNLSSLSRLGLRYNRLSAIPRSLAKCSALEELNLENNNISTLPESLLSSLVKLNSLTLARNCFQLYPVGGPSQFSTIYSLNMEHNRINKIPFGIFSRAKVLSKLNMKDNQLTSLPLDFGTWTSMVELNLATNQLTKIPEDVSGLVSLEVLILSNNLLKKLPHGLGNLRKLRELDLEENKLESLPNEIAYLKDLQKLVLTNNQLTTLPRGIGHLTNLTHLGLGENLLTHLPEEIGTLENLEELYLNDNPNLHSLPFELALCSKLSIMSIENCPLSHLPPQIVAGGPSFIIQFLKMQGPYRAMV
UniProt Q9UP95: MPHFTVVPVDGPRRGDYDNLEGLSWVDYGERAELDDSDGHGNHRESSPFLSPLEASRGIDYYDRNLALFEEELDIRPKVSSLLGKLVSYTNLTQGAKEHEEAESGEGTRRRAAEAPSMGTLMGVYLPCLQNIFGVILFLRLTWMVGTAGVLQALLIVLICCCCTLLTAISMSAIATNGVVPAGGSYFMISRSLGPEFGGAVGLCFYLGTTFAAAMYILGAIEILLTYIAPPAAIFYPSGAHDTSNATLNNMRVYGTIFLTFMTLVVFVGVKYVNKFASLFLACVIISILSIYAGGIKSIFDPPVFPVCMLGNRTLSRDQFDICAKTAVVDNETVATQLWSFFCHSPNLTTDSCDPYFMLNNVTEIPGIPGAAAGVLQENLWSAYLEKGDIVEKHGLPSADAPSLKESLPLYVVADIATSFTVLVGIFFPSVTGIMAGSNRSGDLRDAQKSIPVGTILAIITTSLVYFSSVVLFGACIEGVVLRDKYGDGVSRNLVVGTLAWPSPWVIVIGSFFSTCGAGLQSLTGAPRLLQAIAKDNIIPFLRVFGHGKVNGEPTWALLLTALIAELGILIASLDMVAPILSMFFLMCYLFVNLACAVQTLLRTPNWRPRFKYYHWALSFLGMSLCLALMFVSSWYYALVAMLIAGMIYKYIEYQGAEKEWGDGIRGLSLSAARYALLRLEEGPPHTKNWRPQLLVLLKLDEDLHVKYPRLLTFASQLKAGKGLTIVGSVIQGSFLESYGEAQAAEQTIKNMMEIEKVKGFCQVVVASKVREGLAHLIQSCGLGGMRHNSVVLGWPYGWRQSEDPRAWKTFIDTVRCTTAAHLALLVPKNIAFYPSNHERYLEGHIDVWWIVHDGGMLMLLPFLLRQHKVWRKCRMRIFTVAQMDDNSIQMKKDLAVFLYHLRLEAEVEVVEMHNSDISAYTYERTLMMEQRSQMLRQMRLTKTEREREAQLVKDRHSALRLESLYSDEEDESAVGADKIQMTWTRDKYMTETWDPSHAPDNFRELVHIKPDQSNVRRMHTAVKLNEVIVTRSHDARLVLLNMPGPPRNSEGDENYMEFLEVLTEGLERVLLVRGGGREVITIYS
UniProt Q12872: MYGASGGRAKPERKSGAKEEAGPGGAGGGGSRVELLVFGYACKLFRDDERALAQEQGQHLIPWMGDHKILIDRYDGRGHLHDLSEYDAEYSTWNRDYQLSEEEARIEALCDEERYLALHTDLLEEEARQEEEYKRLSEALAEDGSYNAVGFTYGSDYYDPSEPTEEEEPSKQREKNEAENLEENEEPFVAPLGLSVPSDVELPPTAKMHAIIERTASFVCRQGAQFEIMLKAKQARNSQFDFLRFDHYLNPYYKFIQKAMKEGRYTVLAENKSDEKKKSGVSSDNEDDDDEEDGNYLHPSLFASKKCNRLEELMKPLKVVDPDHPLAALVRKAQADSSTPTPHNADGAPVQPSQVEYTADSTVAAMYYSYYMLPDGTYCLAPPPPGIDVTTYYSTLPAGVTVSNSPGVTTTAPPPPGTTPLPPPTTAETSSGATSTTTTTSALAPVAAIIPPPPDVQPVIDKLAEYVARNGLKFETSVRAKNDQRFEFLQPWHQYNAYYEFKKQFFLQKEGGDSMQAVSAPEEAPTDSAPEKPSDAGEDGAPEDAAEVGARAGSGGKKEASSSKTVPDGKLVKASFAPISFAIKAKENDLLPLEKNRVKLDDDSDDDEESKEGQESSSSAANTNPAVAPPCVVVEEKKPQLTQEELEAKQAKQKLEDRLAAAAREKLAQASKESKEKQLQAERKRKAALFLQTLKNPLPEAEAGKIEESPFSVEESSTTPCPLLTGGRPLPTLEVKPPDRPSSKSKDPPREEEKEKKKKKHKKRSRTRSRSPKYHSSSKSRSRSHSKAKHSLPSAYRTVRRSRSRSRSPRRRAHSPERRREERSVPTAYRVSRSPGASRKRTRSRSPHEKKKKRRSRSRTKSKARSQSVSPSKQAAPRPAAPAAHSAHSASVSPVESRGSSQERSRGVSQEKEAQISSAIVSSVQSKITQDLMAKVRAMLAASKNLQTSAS
UniProt P84101: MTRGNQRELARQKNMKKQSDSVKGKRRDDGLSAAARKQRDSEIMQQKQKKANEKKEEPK
UniProt Q9NRA2: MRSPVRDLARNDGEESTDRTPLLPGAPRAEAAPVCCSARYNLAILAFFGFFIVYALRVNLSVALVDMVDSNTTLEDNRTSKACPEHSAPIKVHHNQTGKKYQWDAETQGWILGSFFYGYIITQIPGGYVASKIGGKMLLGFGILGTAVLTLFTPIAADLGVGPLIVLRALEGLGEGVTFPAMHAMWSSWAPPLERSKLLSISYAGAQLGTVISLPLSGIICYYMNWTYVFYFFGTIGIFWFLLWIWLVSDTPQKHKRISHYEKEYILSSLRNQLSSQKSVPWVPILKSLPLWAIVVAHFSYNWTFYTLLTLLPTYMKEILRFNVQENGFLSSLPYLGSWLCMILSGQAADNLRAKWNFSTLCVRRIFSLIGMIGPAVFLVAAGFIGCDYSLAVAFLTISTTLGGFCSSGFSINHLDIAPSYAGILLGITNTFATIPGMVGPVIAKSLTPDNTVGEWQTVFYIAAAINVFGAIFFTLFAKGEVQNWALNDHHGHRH
UniProt A0MZ66, whole entry, looked up: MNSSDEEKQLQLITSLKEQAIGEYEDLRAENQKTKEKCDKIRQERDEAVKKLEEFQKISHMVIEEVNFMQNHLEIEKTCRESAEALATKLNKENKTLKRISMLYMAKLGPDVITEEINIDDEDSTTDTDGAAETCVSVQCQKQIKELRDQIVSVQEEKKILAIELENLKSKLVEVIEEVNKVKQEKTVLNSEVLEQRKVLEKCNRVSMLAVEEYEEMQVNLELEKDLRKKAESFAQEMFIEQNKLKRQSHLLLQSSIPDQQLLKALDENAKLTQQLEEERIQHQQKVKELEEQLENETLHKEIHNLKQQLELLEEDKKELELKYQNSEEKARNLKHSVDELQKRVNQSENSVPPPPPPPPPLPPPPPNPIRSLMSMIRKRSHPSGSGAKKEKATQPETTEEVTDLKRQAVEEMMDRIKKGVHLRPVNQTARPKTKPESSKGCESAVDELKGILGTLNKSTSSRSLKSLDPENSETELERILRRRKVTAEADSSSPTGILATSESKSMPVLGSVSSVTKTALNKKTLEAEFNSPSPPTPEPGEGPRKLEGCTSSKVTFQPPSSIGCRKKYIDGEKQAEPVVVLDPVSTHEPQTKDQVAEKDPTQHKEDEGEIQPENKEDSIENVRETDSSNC
UniProt Q9H299: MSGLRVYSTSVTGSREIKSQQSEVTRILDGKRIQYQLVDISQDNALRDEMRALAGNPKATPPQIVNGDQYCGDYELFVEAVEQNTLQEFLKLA

Key:
Experiment in all cases: log2 fold change, soluble protein after heating vs DMSO (PISA); higher = thermal stabilisation; K562 lysate, 10 uM; active = over 0.2 and 3.5 SD of the protein, either way, in both replicates (recomputed)
[1] = compound: NCC(=O)Nc1ccc(-n2nc(C(F)(F)F)cc2-c2ccc3c(ccc4ccccc43)c2)cc1
In short: (§1)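 Quantification was by TMTpro 16plex LC-MS/MS with equalised channel sums, applied to the supernatant after 21,000xg for 90 min. Samples were crude K562 extract at 1 mg/mL protein in PBS pH 7.4 with 1 mM MgCl2, treated with 10 μM compound for 30 min, heated for 3 min across 48°C-58°C, pooled and brought to 0.5% NP-40 at 4°C. Values are log-two fold changes in thermal stability relative to solvent controls, from duplicates.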

vorinostat = compound: O=C(CCCCCCC(=O)Nc1ccccc1)NO [vorinostat]
In short: as §1

silmitasertib = compound: O=C(O)c1ccc2c(c1)nc(Nc1cccc(Cl)c1)c1ccncc12 [silmitasertib]
In short: as §1

[2] = compound: O=C1NC(=O)C(c2cnc3ccccn23)=C1c1cn2c3c(cc(F)cc13)CN(C(=O)N1CCCCC1)CC2
In short: as §1

entospletinib = compound: c1cn2cc(-c3ccc4cn[nH]c4c3)nc(Nc3ccc(N4CCOCC4)cc3)c2n1 [entospletinib]
In short: as §1

Measured: log2 fold change

SLC11A2 isoform 3 (UniProt P49281)
inactive: [1] -0.011 | vorinostat 0 | silmitasertib -0.047 | [2] 0.013 | entospletinib -0.054

SH3BP5 (UniProt O60239)
inactive: [1] 0.014 | vorinostat 0.096 | silmitasertib -0.007 | [2] 0.01 | entospletinib 0.012

SLC12A6 (UniProt Q9UHW9)
inactive: [1] 0.009 | vorinostat 0.15 | silmitasertib -0.045 | [2] 0.003 | entospletinib 0.013

SFXN4 (UniProt Q6P4A7)
inactive: [1] -0.038 | vorinostat -0.066 | silmitasertib -0.076 | [2] -0.034 | entospletinib -0.02

SIDT2 isoform 2 (UniProt Q8NBJ9)
inactive: [1] -0.056 | vorinostat 0.102 | silmitasertib -0.153 | [2] 0.036 | entospletinib -0.017

SGF29 (UniProt Q96ES7)
inactive: [1] 0.052 | vorinostat -0.066 | silmitasertib 0.047 | [2] 0 | entospletinib 0.012

SFXN5 (UniProt Q8TD22)
inactive: [1] -0.018 | vorinostat 0.126 | silmitasertib 0.064 | [2] 0.079 | entospletinib -0.025

SIRT2 (UniProt Q8IXJ6)
inactive: [1] -0.052 | vorinostat -0.026 | silmitasertib 0.051 | [2] 0.023 | entospletinib -0.047

SIPA1 (UniProt Q96FS4)
inactive: [1] 0.024 | vorinostat 0.013 | silmitasertib -0.021 | [2] -0.025 | entospletinib -0.082

SF3B3 (UniProt Q15393)
inactive: [1] 0.001 | vorinostat 0.069 | silmitasertib 0.005 | [2] 0.002 | entospletinib 0.011

SKP1 (UniProt P63208)
inactive: [1] -0.018 | vorinostat 0.053 | silmitasertib -0.018 | [2] 0.038 | entospletinib -0.004

SH3BGRL (UniProt O75368)
inactive: [1] -0.006 | vorinostat 0.172 | silmitasertib -0.031 | [2] 0.035 | entospletinib -0.027

SFXN4 isoform 3 (UniProt Q6P4A7)
inactive: [1] 0.1 | vorinostat 0.084 | silmitasertib -0.171 | [2] -0.003 | entospletinib -0.04

SERINC3 (UniProt Q13530)
inactive: [1] -0.027 | vorinostat 0.019 | silmitasertib -0.012 | [2] 0.017 | entospletinib 0.024

SIN3A (UniProt Q96ST3)
inactive: [1] -0.007 | vorinostat -0.076 | silmitasertib 0.033 | [2] -0.019 | entospletinib -0.003

SHOC2 (UniProt Q9UQ13)
inactive: [1] 0.038 | vorinostat -0.03 | silmitasertib 0.029 | [2] 0.02 | entospletinib 0.003

SLC12A4 (UniProt Q9UP95)
inactive: [1] 0.024 | vorinostat 0.106 | silmitasertib -0.157 | [2] 0.041 | entospletinib -0.008

SF1 isoform 6 (UniProt Q15637)
inactive: [1] -0.032 | vorinostat 0.126 | silmitasertib -0.109 | entospletinib 0.046

SF1 isoform 5 (UniProt Q15637)
inactive: [1] 0.029 | vorinostat 0.087 | silmitasertib -0.014 | [2] -0.022 | entospletinib -0.04

SFSWAP isoform 2 (UniProt Q12872)
inactive: [1] 0.012 | vorinostat -0.005 | silmitasertib -0.094 | [2] -0.031 | entospletinib -0.021

SERF2 (UniProt P84101)
inactive: [1] 0.066 | vorinostat 0.151 | silmitasertib 0.059 | [2] 0.016 | entospletinib 0.027

SLC17A5 (UniProt Q9NRA2)
inactive: [1] 0.004 | vorinostat 0.11 | silmitasertib -0.124 | entospletinib 0.011

SHTN1 (UniProt A0MZ66)
inactive: [1] 0.027 | vorinostat 0.031 | silmitasertib 0 | [2] 0.009 | entospletinib -0.005

Taken from the results shown (two entries):
SERF2 (UniProt P84101)
inactive: [1] 0.066 | vorinostat 0.151 | silmitasertib 0.059 | [2] 0.016 | entospletinib 0.027

SLC17A5 (UniProt Q9NRA2)
inactive: [1] 0.004 | vorinostat 0.11 | silmitasertib -0.124 | entospletinib 0.011

Additional entries:

SH3BGRL3 (UniProt Q9H299)
inactive: [1] -0.096 | vorinostat 0.105 | silmitasertib 0.003 | [2] 0.001 | entospletinib -0.013

SLC15A4 (UniProt Q8N697)
inactive: [1] 0.102 | vorinostat 0.118 | silmitasertib 0.084 | [2] -0.059 | entospletinib -0.001

SERPINB9 (UniProt P50453)
inactive: [1] 0.012 | vorinostat 0.085 | silmitasertib 0.008 | [2] 0.022 | entospletinib 0.021
